Earlier results in patent EP1377579B1 (Aventis Pharmaceuticals Inc., priority 2000, dated 2002).

Test system: 60 human tumour cell lines
Conditions: read-out: average IC50 value, proliferation; average over 60 human tumour cell lines; cited from earlier work

CCC(CO)Nc1nc(NCc2ccccc2)c2ncn(C(C)C)c2n1 (stereo not shown) [roscovitine, 2-(1-ethyl-2-hydroxyethylamino)-6-benzylamino-9-isopropylpurine]
IC50: 16 µM
